According to publication PMC12126490, “The HP1 box of KAP1 organizes HP1α for silencing of endogenous retroviral elements in embryonic stem cells” (Nature Communications, 2025):

Test system: FL HP1α and L139E/L150E HP1α (oligomeric states)
Experiment: mass photometry, HP1α oligomerization (Fig. 5c)
Design: species or system human
Settings: 50 mM Tris pH 7.5, 150 mM NaCl, 5 mM DTT, room temperature

For FL HP1α: Human full-length HP1α, the “molecular mass, maximum of the fit” value (10 nM) was 57 kDa and the “molecular mass, maximum of the fit” value (50 nM) was 72 kDa.

With “L139E/L150E FL HP1α: β-sheet interface mutant of full-length HP1α” the “molecular mass, maximum of the fit” value (10 nM) was 50 kDa and the “molecular mass, maximum of the fit” value (50 nM) was 59 kDa.
